Laboratory results taken from paper PMC3491368.
No constants are given. Whether binding was seen depends on the method and setting. In cells and extracts the contact can be indirect. Some binding calls cover weakened binding; strength is not graded here.

The chains behind the UniProt entries cited, without tags or fusion partners.
UniProt P83916: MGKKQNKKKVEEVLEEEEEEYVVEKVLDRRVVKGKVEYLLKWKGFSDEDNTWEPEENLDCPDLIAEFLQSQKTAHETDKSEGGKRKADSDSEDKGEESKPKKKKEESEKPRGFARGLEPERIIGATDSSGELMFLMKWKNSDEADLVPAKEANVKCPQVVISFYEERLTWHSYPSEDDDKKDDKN
UniProt Q13263: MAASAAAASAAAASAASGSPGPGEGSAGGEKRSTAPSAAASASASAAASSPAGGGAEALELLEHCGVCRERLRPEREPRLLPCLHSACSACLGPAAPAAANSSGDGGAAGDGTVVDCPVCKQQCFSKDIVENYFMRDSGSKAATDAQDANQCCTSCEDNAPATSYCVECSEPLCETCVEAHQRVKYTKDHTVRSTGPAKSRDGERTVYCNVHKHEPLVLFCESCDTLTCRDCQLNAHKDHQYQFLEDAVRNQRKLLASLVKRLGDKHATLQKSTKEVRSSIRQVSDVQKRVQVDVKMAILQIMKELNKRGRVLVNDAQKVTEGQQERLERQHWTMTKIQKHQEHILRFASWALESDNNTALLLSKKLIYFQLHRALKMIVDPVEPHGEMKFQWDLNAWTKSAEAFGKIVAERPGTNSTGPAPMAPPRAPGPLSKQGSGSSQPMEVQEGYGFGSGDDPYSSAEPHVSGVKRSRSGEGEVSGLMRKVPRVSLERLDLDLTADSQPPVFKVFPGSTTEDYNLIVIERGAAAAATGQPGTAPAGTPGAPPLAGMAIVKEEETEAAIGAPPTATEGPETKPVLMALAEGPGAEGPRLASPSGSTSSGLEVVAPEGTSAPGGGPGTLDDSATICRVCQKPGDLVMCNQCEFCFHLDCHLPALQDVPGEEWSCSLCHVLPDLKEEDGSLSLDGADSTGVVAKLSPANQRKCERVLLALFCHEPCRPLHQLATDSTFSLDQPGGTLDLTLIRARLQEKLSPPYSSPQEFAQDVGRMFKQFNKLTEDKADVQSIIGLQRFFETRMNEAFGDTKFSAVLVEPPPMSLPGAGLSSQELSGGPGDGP

Molecular target: FLAG-tagged HP1β (UniProt P83916)
Assay: co-IP; nuclei of HEK293 cells expressing a FLAG-tagged reader digested with micrococcal nuclease; anti-FLAG immunoprecipitation of bound mononucleosomes, elution with excess FLAG peptide; input, unbound and eluted fractions on 17% SDS-PAGE with Coomassie blue staining

binding: binds
Substance: Tif1β protein (from UniProt Q13263 1-835)
